The campaign covered roughly 320,000 compounds. About 22,000 (6.9%) were called active. The shares of active, inactive and inconclusive entries below differ from those in the screen. Calls come from the whole dose curve; as a rule, active = well fitted inhibition curve with a large enough effect; inconclusive = small, poorly fitted or top-dose-only effect, or another doubt; inactive = no such curve, though single readings can be large or run the other way. Potencies of inconclusive entries are doubtful fits and often do not repeat.
Assay: Primary qHTS for delayed death inhibitors of the malarial parasite plastid, 96 hour incubation
Settings: P. falciparum luciferase reporter growth; series mostly up to 28.7 µM
How it was run: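 Compounds incubated with erythrocytes infected by luciferase-expressing P. falciparum (2% hematocrit, 0.05% parasitemia final) for 96 hours, 37 C in 5% CO2. Growth inhibition scored as decreased luciferase luminescence.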
Potency is the fitted concentration of half-maximal effect.

Structure (SMILES) | Potency
Nc1cc(F)ccc1N1CCCCCC1 | inactive
CC(C)N(Cc1ccccc1)C(=O)COC(=O)C1CCN(S(=O)(=O)c2ccc3c(c2)OCCO3)CC1 | inconclusive: 0.0029 µM [inhibitor, full curve, poor fit]
Cc1ccccc1CCN(CC(=O)NCc1ccc(F)cc1)C(=O)c1csnn1 | inconclusive: 10.4 µM [inhibitor, partial curve, poor fit]
CN1C(=O)C(CC(=O)N2CCN(C(c3ccccc3)c3ccccc3)CC2)N(C)C1=O (stereo not drawn) | inconclusive: 0.0586 µM [inhibitor, full curve, poor fit]
Cc1ccccc1-n1c(SCC(=O)Nc2c(C)cccc2C)nc(O)cc1=O | inactive
Cc1cccc(N2CCN(S(=O)(=O)c3ccc4c(c3)NC(=O)C(C)S4)CC2)c1C (stereo not drawn) | inconclusive: 11.7 µM [inhibitor, partial curve, poor fit]
O=[N+]([O-])c1ccc2[nH]c(O)c(N=Nc3ccc(F)cc3)c2c1 | inconclusive: 18.5 µM [inhibitor, single point]
CN(C)c1ncccc1-c1nc2ccccc2s1 | inactive
CC1(C)CC(=O)C2=C(C1)N(c1ccc(F)cc1)C(=O)CC2c1ccsc1 (stereo not drawn) | active: 3.29 µM
C(C#CCCCCCCCCC[n+]1ccccc1)#CCCCCCCCCC[n+]1ccccc1 | active: 0.0928 µM
CC1=NN(C(=O)c2ccc(Cn3cc(Br)c([N+](=O)[O-])n3)o2)C(O)(C(F)(F)F)C1 (stereo not drawn) | inconclusive: 10.4 µM [inhibitor, single point]
CC(=O)c1ccc(N2CCC(c3cc(-c4ccc(Cl)cc4)n[nH]3)CC2)c([N+](=O)[O-])c1 | inconclusive: 9.28 µM [inhibitor, single point]
CCCC1CCC(=NNS(=O)(=O)c2ccc(C)c([N+](=O)[O-])c2)CC1 (stereo not drawn) | inconclusive: 0.0522 µM [inhibitor, full curve, poor fit]
Oc1ccc(-c2nnc(-c3ccc(O)cc3)nn2)cc1 | inconclusive: 8.28 µM [inhibitor, partial curve]
O=C(CSc1ccc(Cl)cc1)Nc1ccccc1N1CCN(C(=O)c2ccc(Cl)cc2)CC1 | inconclusive: 14.7 µM [inhibitor, partial curve, poor fit]
OC(COCc1ccc(Cl)cc1)CN1CCCCC1 (stereo not drawn) | inconclusive: 10.4 µM [inhibitor, partial curve, poor fit]
COc1ccc2[nH]c3c(c2c1)CCN=C3C | inconclusive: 4.15 µM [inhibitor, partial curve]
COc1ccc(NC(=O)CN2C(=O)NC3(CC(C)CC(C)(C)C3)C2=O)cc1S(=O)(=O)N1CCCCC1 (stereo not drawn) | inconclusive: 18.5 µM [inhibitor, single point]
CN1CCc2c(sc(NC(=O)c3ccc(S(=O)(=O)N4CCOCC4)cc3)c2C(N)=O)C1 | inconclusive: 10.4 µM [inhibitor, partial curve]
Cc1c(-c2nn(C)c(=O)c3ccccc23)oc2ccc(F)cc2c1=O | active: 4.15 µM
Cc1c(CCC(=O)N2CCC[C@H]2C(=O)O)c(=O)oc2cc3oc4c(c3cc12)CCCC4 | inconclusive: 0.0037 µM [inhibitor, full curve, poor fit]
O=C(NCCCCNC(=O)c1cccs1)c1cccs1 | inconclusive: 13.1 µM [inhibitor, single point]
CCCCN(C(=O)c1ccc(COc2ccccc2)o1)c1c(N)n(CC(C)C)c(=O)[nH]c1=O | inconclusive: 13.1 µM [inhibitor, single point]

Structure (SMILES) | Potency
O=C(c1cc(-c2ccc(Br)cc2)nc2ccccc12)N1CCC1 | active: 4.15 µM
Oc1ccc(Br)cc1C=Nc1ccc(Cl)cc1 | inconclusive: 9.28 µM [inhibitor, partial curve, poor fit]
[N-]=C=C1C(=O)NC(=O)C([n+]2ccc(-c3ccncc3)cc2)C1c1ccccc1C(F)(F)F (stereo not drawn) | inactive
COc1cc(CN(C)c2ccc(S(=O)(=O)N3CCCC3)cn2)ccc1OC(F)F | inconclusive: 14.7 µM [inhibitor, partial curve, poor fit]
O=C(Cn1cnc(S(=O)(=O)N2CCCC2)c1)Nc1ccc(OC(F)(F)F)cc1 | inconclusive: 18.5 µM [inhibitor, single point]
CC(C)OC(=O)CSc1nc2c(cc1C#N)CCCCC2 | inconclusive: 18.5 µM [inhibitor, single point]
COC(=O)c1ccccc1NC(=O)CSc1nnc(-c2ccc(C)cc2)o1 | inconclusive: 4.65 µM [inhibitor, partial curve, poor fit]
COc1cc(CNc2ncc(-c3ccc(Br)cc3)n2C)cc(OC)c1OC | inconclusive: 13.1 µM [inhibitor, partial curve, poor fit]
Cc1ccc(OCCn2cc(/C=C(\C#N)C(=O)NCC3CCCO3)c3ccccc32)cc1C (stereo not drawn) | inconclusive: 10.4 µM [inhibitor, single point]
COc1cccc(CC(=O)OCC(=O)N(C)CC(=O)Nc2ccc(Cl)c(C(F)(F)F)c2)c1 | inactive
FC(F)(F)c1cccc(Cc2noc(CN(Cc3ccccn3)CC3CCCO3)n2)c1 (stereo not drawn) | inconclusive: 13.1 µM [inhibitor, partial curve]
O=C(NC1CCCC1)C(c1ccccc1F)N(C(=O)c1csnn1)C1CC1 (stereo not drawn) | inconclusive: 4.65 µM [inhibitor, partial curve]
Nc1ccc(Cc2ccc(N)c(O)c2)cc1O | inconclusive: 0.928 µM [inhibitor, full curve, poor fit]
CC1=C(C(=O)Nc2ccc(C)cc2C)C(c2ccc(Cl)cc2)n2nc(C(=O)OC(C)C)nc2N1 (stereo not drawn) | inconclusive: 18.5 µM [inhibitor, single point]
CN1C(=O)NC(=O)C2(Cc3ccccc3N3CCOCC32)C1=O (stereo not drawn) | inconclusive: 4.15 µM [inhibitor, single point]
CC12CC(c3ccccc3O1)N(C(=O)c1ccco1)C(=S)N2c1ccccc1 (stereo not drawn) | inconclusive: 11.7 µM [inhibitor, single point]
FC(F)(F)c1cc(-c2cccs2)nc(-n2cc(Cl)cn2)n1 | inconclusive: 0.828 µM [inhibitor, full curve, poor fit]
CC(C)(C)NC(=O)COC(=O)c1ccccc1NC(=O)c1ccco1 | inactive
Cc1ccc(C(=O)NCCNC(=O)c2cccnc2)cc1 | inactive
COc1ccc(NC(=O)CSc2ccccc2)c(OC)c1 | inconclusive: 13.1 µM [inhibitor, partial curve, poor fit]
Cn1c(CC(=O)NNC(=O)c2ccc(F)cc2F)nc2ccccc21 | inconclusive: 13.1 µM [inhibitor, single point]
CCOc1cc(CNC(C)C(O)c2ccccc2)cc(Cl)c1OCC (stereo not drawn) | inconclusive: 2.94 µM [inhibitor, full curve]
COc1ccc2c(c1)c(/C=N/Nc1ccc(C(=O)O)cc1)c(C)n2C | inactive

Gathered by group: the entries above containing a Cl atom
Structure (SMILES) | Potency
CC(=O)c1ccc(N2CCC(c3cc(-c4ccc(Cl)cc4)n[nH]3)CC2)c([N+](=O)[O-])c1 | inconclusive: 9.28 µM [inhibitor, single point]
O=C(CSc1ccc(Cl)cc1)Nc1ccccc1N1CCN(C(=O)c2ccc(Cl)cc2)CC1 | inconclusive: 14.7 µM [inhibitor, partial curve, poor fit]
OC(COCc1ccc(Cl)cc1)CN1CCCCC1 (stereo not drawn) | inconclusive: 10.4 µM [inhibitor, partial curve, poor fit]
Oc1ccc(Br)cc1C=Nc1ccc(Cl)cc1 | inconclusive: 9.28 µM [inhibitor, partial curve, poor fit]
COc1cccc(CC(=O)OCC(=O)N(C)CC(=O)Nc2ccc(Cl)c(C(F)(F)F)c2)c1 | inactive
CC1=C(C(=O)Nc2ccc(C)cc2C)C(c2ccc(Cl)cc2)n2nc(C(=O)OC(C)C)nc2N1 (stereo not drawn) | inconclusive: 18.5 µM [inhibitor, single point]
FC(F)(F)c1cc(-c2cccs2)nc(-n2cc(Cl)cn2)n1 | inconclusive: 0.828 µM [inhibitor, full curve, poor fit]
CCOc1cc(CNC(C)C(O)c2ccccc2)cc(Cl)c1OCC (stereo not drawn) | inconclusive: 2.94 µM [inhibitor, full curve]

Going on with the list:

Structure (SMILES) | Potency
O=C(O)c1ccc(N/N=C/c2ccc(F)c(F)c2)cc1 | inactive
COc1cc(Cl)c(C)cc1NC(=O)CSc1ccc(C)cc1 | inactive
Cc1nc(N2CCCCC2)c2c(-c3cccs3)csc2n1 | inconclusive: 9.28 µM [inhibitor, partial curve, poor fit]
c1ccc2nc(N3CCCC3)c(N3CCCC3)nc2c1 | inconclusive: 13.1 µM [inhibitor, single point]
CC(=O)Nc1cccc(OCC(O)Cn2c(C)nc3ccccc32)c1 (stereo not drawn) | inconclusive: 18.5 µM [inhibitor, single point]
Cc1ccc(-c2nnc(-c3ccc(Br)cc3)o2)o1 | active: 2.62 µM
COC(=O)c1cc(OC)c(OC)cc1NC(=O)C(C)c1ccc([N+](=O)[O-])cc1 (stereo not drawn) | inactive
COc1ccc(CCNC(=O)CSc2nc3ccsc3c(=O)n2CC2CCC(C(=O)O)CC2)cc1OC (stereo not drawn) | inconclusive: 18.5 µM [inhibitor, single point]
O=C(NC1CCN(S(=O)(=O)c2ccccc2)CC1)c1ccc(F)cc1 | inconclusive: 13.1 µM [inhibitor, single point]
Cc1ccc(-c2csc(N)n2)s1 | inactive
COc1ccc(CCNC(=O)C(C(=O)c2ccc(F)cc2)n2ccccc2=O)cc1OC (stereo not drawn) | inconclusive: 8.28 µM [inhibitor, partial curve]
Cc1ccc(Oc2nc3ccccn3c(=O)c2/C=C(\C#N)C(=O)NC2CCS(=O)(=O)C2)c(C)c1 (stereo not drawn) | active: 10.4 µM
Cc1nc(N)c(C#N)c(-c2ccccc2)c1C | inactive
CC(=O)Nc1cccc(NC(=O)CSc2nc3c(=O)n(C)c(=O)n(C)c3n2C)c1 | inactive
S=C(NCc1ccc(Cl)cc1)NCc1ccco1 | inconclusive: 2.33 µM [inhibitor, single point]
COC(=O)c1nc2n(n1)C(c1cccc(Cl)c1)C1=C(CCCC1=O)N2 (stereo not drawn) | inactive
COc1ccccc1CNC(=O)c1ccc2ccccc2n1 | inconclusive: 0.0041 µM [inhibitor, full curve, poor fit]
Cc1ccc(S(=O)(=O)NC(Cc2ccccc2)C(=O)O)cc1 (stereo not drawn) | inactive
Cc1ccc(CNC(=O)c2csc3c2CCCCC3)cc1 | inconclusive: 11.7 µM [inhibitor, single point]
CC1CCN(S(=O)(=O)c2ccc3ncn(CC(=O)N(C)Cc4ccccc4)c(=O)c3c2)CC1 | active: 14.7 µM
COC(=O)c1ccc(C)c(NC(=O)CN(c2ccccc2)S(=O)(=O)N(C)C)c1 | inconclusive: 9.28 µM [inhibitor, single point]
Cc1ccc(S(=O)(=O)n2nc(-c3ccco3)nc2SCc2ccccc2)cc1 | inactive

An excerpt of these results, in markdown.

| Structure (SMILES) | Potency |
| --- | --- |
| FC(F)(F)c1cc(-c2cccs2)nc(-n2cc(Cl)cn2)n1 | inconclusive: 0.828 µM [inhibitor, full curve, poor fit] |
| CC(C)(C)NC(=O)COC(=O)c1ccccc1NC(=O)c1ccco1 | inactive |
